Assay results reported in patent US12624050B2, “Three fused ring derivative-containing salt or crystal form and pharmaceutical composition thereof” (Shanghai Hansoh Biomedical Co., Ltd., priority 2019, dated 2026).
Some of these results come from one statement about several compounds together.

Assay: Stability experiment of the solids (60°C, RH 95%, light), HPLC
Format: physicochemical
Protocol: About 2 mg of crystal form A of mesylate salt, crystal form C of sulfate salt and crystal form A of ethanesulfonate salt of (S)-2-((2-((R)-4-(difluoromethyl)-2-oxothiazolidin-3-yl)-5,6-dihydrobenzo[f]imidazo[1,2-d][1,4]oxazepin-9-yl)amino)propionamide was placed in a sealed oven at 60° C., in an unsealed container at room temperature under RH 95% (saturated aqueous KNO3 solution) and in a light box (5000 lx±500 lx) and observed for 5 days and 10 days. The content of salt was determined by HPLC using the external standard method. Changes of related substance of salt in substances related to the salts were calculated by normalization of chromatography peak area.

[1] = room temperature under RH 95% for 10 days

| Compound | impurity increase compared with 0 days (60°C for 10 days) | impurity increase compared with 0 days [1] |
| --- | --- | --- |
| CCS(=O)(=O)O.C[C@H](Nc1ccc2c(c1)OCCn1cc(N3C(=O)SC[C@H]3C(F)F)nc1-2)C(N)=O [crystal form A of ethanesulfonate salt, (S)-2-((2-((R)-4-(difluoromethyl)-2-oxothiazolidin-3-yl)-5,6-dihydrobenzo[f]imidazo[1,2-d][1,4]oxazepin-9-yl)amino)propionamide] | less than 0.05% | less than 0.05% |
| CS(=O)(=O)O.C[C@H](Nc1ccc2c(c1)OCCn1cc(N3C(=O)SC[C@H]3C(F)F)nc1-2)C(N)=O [crystal form A of mesylate salt, (S)-2-((2-((R)-4-(difluoromethyl)-2-oxothiazolidin-3-yl)-5,6-dihydrobenzo[f]imidazo[1,2-d][1,4]oxazepin-9-yl)amino)propionamide] | less than 0.05% | less than 0.05% |
| C[C@H](Nc1ccc2c(c1)OCCn1cc(N3C(=O)SC[C@H]3C(F)F)nc1-2)C(N)=O.O=S(=O)(O)O [crystal form C of sulfate salt, (S)-2-((2-((R)-4-(difluoromethyl)-2-oxothiazolidin-3-yl)-5,6-dihydrobenzo[f]imidazo[1,2-d][1,4]oxazepin-9-yl)amino)propionamide] | less than 0.05% | less than 0.05% |
